Values of other authors in US20020151876A1, “Devices and methods for management of bone density” (priority 2001, published 2002).

Test system: patients with Crohn's disease
Settings: cited from earlier work

For `NCCCC(O)(P(=O)(O)O)P(=O)(O)O` [alendronate], the “BMD (bone mineral density)” value is listed as “significantly increased BMD”.
